Experimental data from publication PMC10965100.
Read-outs that look alike come from different tables or passages of the source. No constants are given. Whether binding was seen depends on the method and setting. A result given as binding can be weak or reduced; the word gives no strength. For some of these results: Sequences can lack the tags named with a protein. For some of these results: In cells and extracts the contact can be indirect.

Chains of the proteins cited; added tags and fusions are not shown. Lines headed by an entry give the natural chain unless they say otherwise; changes in a name come on top.
UniProt A0A3Q9VF17: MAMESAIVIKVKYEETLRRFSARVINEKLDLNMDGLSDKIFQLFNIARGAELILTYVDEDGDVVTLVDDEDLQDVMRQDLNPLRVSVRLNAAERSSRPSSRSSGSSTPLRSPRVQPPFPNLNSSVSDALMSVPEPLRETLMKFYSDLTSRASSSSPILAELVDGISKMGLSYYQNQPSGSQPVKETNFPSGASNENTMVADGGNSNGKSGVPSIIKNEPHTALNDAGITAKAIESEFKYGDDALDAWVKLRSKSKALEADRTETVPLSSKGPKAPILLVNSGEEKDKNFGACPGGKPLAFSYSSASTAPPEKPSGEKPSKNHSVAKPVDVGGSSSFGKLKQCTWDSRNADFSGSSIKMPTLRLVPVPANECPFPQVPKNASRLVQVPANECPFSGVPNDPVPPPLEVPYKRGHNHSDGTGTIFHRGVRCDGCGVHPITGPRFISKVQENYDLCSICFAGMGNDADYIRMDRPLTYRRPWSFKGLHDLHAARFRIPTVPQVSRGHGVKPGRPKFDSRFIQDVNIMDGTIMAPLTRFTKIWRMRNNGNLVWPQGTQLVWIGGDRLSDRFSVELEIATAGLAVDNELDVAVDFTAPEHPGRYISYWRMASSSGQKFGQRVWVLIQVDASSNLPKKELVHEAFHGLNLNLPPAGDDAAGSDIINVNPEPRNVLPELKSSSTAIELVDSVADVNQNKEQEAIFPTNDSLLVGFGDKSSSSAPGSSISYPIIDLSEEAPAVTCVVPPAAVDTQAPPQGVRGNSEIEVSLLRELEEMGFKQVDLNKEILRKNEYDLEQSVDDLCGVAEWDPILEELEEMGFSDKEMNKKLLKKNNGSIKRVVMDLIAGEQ

Columns and labels:
[1] = biological target: cYFP-ATG8f (N. benthamiana); assay: split reporter; BiFC (nYFP and cYFP halves) in agroinfiltrated N. benthamiana leaves, confocal microscopy at 2-2.5 dpai; RFP-SKL, RFP-AtTim21 or p33-BFP mark the VROs; the VPS34-p33 pair was tested in ATG8f-silenced and TRV2-MBP control plants
[2] = biological target: full-length TBSV p33 replication protein, MYTH bait (Tomato bushy stunt virus); assay: two-hybrid; split-ubiquitin-based membrane yeast two-hybrid (MYTH); p33 as bait, NubG preys
[3] = biological target: cYFP-ATG8f (N. benthamiana); assay: split reporter; BiFC (nYFP and cYFP halves) in agroinfiltrated N. benthamiana leaves, confocal microscopy at 2-2.5 dpai; RFP-SKL, RFP-AtTim21 or p33-BFP mark the VROs; the VPS34-p33 pair was tested in ATG8f-silenced and TRV2-MBP control plants; remark: listed apart in the source
[4] = biological target: TBSV p33-cYFP replication protein (Tomato bushy stunt virus); assay: as above

nYFP-NBR1 (from UniProt A0A3Q9VF17)
binding [1]: binds

B1: GST-His6-ScATG8, MYTH prey (protein, UniProt P38182 1-117)
chain: MKSTFKSEYPFEKRKAESERIADRFKNRIPVICEKAEKSDIPEIDKRKYLVPADLTVGQFVYVIRKRIMLPPEKAIFIFVNDTLPPTAALMSAIYQEHKDKDGFLYVTYSGENTFGR
binding [2]: binds

B2: nYFP-SH3P2 (protein, UniProt Q8VWF1 1-368)
chain: MDAIRKQASRLREQVARQQQAVFKQFGGGGYGSGLADEAELNQHQKLEKLYISTRAAKHYQRDIVRGVEGYIVTGSKQVEIGTKLSEDSRKYGSENTCTNGNVLTRAALNYGRARAQMEKERGNMLKALGTQVAEPLRAMVLGAPLEDARHLAQRYDRMRQEAEAQATEVARRQAKARESQGNPDILMKLESAEAKLHDLKSNMTILGKEAASALASVEDQQQKLTLERLLSMVESERAYHQRVLQILDQLEGEMVSERQRIEAPSTPSSADSMPPPPSYEEANGVFASQMHDTSTDSMGYFLGEVLFPYHGVTDVELSLSTGEYVVVRKVTGSGWAEGECKGKAGWFPYGYIERRERVLASKVSEVF
binding [3]: binds | binding [4]: binds
